Data from PubChem BioAssay AID651640 (Broad Institute, 2012).
Hit rate of the full screen: of about 350,000 compounds, about 6,000 (1.7%) were called active. The shares of active, inactive and inconclusive entries below differ from those in the screen. Cut-off read from the data, not from the text of the source: active = CPE inhibition above about 20% (passing the limit was not always enough); inconclusive = no clear call, values can overlap the other calls; tested in BHK-21 cells.

Assay: protection of cells from dengue 2 killing – plate reader, single concentration, primary screen (AID 651640);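 note: 0% = median of neutral control wells and 100% = median of positive control wells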
Conditions: DENV2-infected cells, cytopathic effect rescue, at 9.99 µM, active compounds read high
With `Nc1sc(-c2ccccc2)cc1C(=O)NCCN1CCOCC1` the CPE inhibition was active: 25.9%.
For `CCCC(=O)Nc1ccc2c(c1)C(=O)N(C)C[C@H](OC)[C@@H](C)CN(Cc1cncnc1)[C@@H](C)CO2`, the CPE inhibition was inactive: -9.05%.
For `COc1ccc(-c2ccc([C@@H]3[C@H]4CN(CC5CCOCC5)CCCCN4[C@H]3CO)cc2)cc1`, the CPE inhibition was active: 62.8%.
For `C[C@@H](NC(=O)C[C@@H]1CC[C@@H]2[C@H](COC[C@H](O)CN2C(=O)Nc2cccc(F)c2)O1)c1ccccc1`, the CPE inhibition was inactive: -1.42%.
In the case of `CC(C)C#Cc1ccc([C@H]2[C@H](CO)N3CCCCN(CC4CC4)C[C@@H]23)cc1`, the CPE inhibition is reported as active: 25.8%.
With `COc1cccc(NC(=O)N(C)C[C@@H]2Oc3ncc(C#Cc4ccncc4)cc3C(=O)N([C@@H](C)CO)C[C@@H]2C)c1` the CPE inhibition was inconclusive: 28.5%.
For `O=C(CN1C(=O)NC2(CCCCC2)C1=O)N1CCOCC1`, the CPE inhibition was inconclusive: 26.1%.
With `C#CCN(C)CCCOc1ccc(Cl)cc1Cl` the CPE inhibition was inconclusive: 71.2%.
With `Cn1c(=O)c2c(nc(Sc3ncccn3)n2Cc2ccc(Cl)cc2)n(C)c1=O` the CPE inhibition was inconclusive: 39.8%.
For `O=C(C[C@@H]1C[C@H]2c3cc(NC(=O)C4CCOCC4)ccc3O[C@H]2[C@H](CO)O1)NCc1cccc(F)c1`, the CPE inhibition was inconclusive: 25.8%.
In the case of `COc1ccc(S(=O)(=O)Nc2ccc3c(c2)C(=O)N([C@@H](C)CO)C[C@H](C)[C@@H](CN(C)Cc2ccc(C(=O)O)cc2)OCCCC[C@H](C)O3)cc1`, the CPE inhibition is reported as active: 54.1%.
For `Cc1c(C)c(C)c(S(=O)(=O)N2CCNCC2)c(C)c1C`, the CPE inhibition was inconclusive: 39.9%.
For `C[C@H](CO)N1C[C@H](C)[C@@H](CN(C)C)Oc2ccc(NC(=O)Cc3cn(C)c4ccccc34)cc2CC1=O`, the CPE inhibition was inactive: -1.89%.
In the case of `CCCCCCCNC(=O)C1(CC2CC(c3cccc(Br)c3)=NO2)CCN(C(=O)C2CCCC2)CC1` (stereo not drawn), the CPE inhibition is reported as inconclusive: 24.9%.
In the case of `CCOC(=O)C1=C(C)N(C[C@@H]2CC[C@@H](Cc3ccc4cc(OC)ccc4c3)O2)C(=O)NC1c1ccccc1` (stereo partly drawn), the CPE inhibition is reported as active: 48.7%.
For `Cc1ccccc1S(=O)(=O)N1CC(=O)N2[C@H](CO)[C@@H](c3ccc(C#CCN(C)C)cc3)[C@H]2C1`, the CPE inhibition was active: 42.7%.
With `CC(=O)N1C[C@@H]2[C@H](c3ccccc31)[C@@H](CO)N2S(=O)(=O)c1ccccc1` the CPE inhibition was inconclusive: 20.3%.
For `O=C(NCc1ccccc1)C1=C[C@@H](c2ccc(C(F)(F)F)cc2)C[C@@H](OCc2ccc(CO)cc2)O1`, the CPE inhibition was inconclusive: 57.8%.
In the case of `Cc1ccc(CC(=O)OC(C)C(=O)NC2CCCCC2C)cc1C` (stereo not drawn), the CPE inhibition is reported as inconclusive: 30.1%.
For `CCc1nnc(NS(=O)(=O)c2ccc(N=CC3=C(O)CC(C)(C)CC3=O)cc2)s1`, the CPE inhibition was inconclusive: 34.8%.
For `C[C@@H]1CN([C@@H](C)CO)C(=O)c2cc(-c3ccccc3F)cnc2O[C@H]1CN(C)Cc1ccc(F)cc1`, the CPE inhibition was inactive: -5.49%.
For `CCCCNC(=O)[C@H](CSCc1ccccc1)N1Cc2ccccc2C1=O`, the CPE inhibition was inconclusive: 49.5%.
In the case of `Cc1ccc(NC(=O)C/C(N)=N/OC(=O)Nc2ccc(C)c(Cl)c2)cc1`, the CPE inhibition is reported as inconclusive: 49.8%.
For `C[C@@H]1CCCCO[C@@H](CN(C)C(=O)C2CCCCC2)[C@H](C)CN([C@@H](C)CO)C(=O)c2cc(NS(C)(=O)=O)ccc2O1`, the CPE inhibition was inconclusive: 35%.
With `COc1ccc(OCC(=O)N/N=C/C2CC=CCC2)cc1` (stereo not drawn) the CPE inhibition was inconclusive: 21.5%.
With `Cc1cccc(C(=O)NCCNC(=O)c2ccco2)c1` the CPE inhibition was inconclusive: 20.5%.
For `O=C(COC(=O)c1ccc(Cl)c(S(=O)(=O)N2CCOCC2)c1)Nc1ccc2[nH]c(=O)[nH]c2c1`, the CPE inhibition was inconclusive: 23.3%.
With `Cc1cc(C)n2c(NC3CCCC3)c(-c3ccc(F)cc3)nc2n1` the CPE inhibition was inconclusive: 20.7%.
For `CO[C@H]1CN(C)C(=O)c2cc(NC(=O)Nc3cc(F)ccc3F)ccc2OC[C@@H](C)N(C(=O)c2cnccn2)C[C@H]1C`, the CPE inhibition was inactive: 17.8%.
With `Cc1ccc(C(=O)NCCNS(=O)(=O)c2ccccc2)cn1` the CPE inhibition was inconclusive: 24.9%.
In the case of `C[C@@H]1CCCCO[C@H](CN(C)S(=O)(=O)c2ccccc2)[C@H](C)CN([C@@H](C)CO)C(=O)c2cc(NC(=O)Nc3ccc(C(F)(F)F)cc3)ccc2O1`, the CPE inhibition is reported as active: 22.7%.
In the case of `O=C(Cn1cnc2ccccc2c1=O)c1ccc(OC(F)F)cc1`, the CPE inhibition is reported as inconclusive: 48.2%.
With `COc1ccc(S(=O)(=O)N(C)C[C@@H]2Oc3cc(C4=CCCC4)ccc3S(=O)(=O)N([C@H](C)CO)C[C@H]2C)cc1` the CPE inhibition was inactive: -5.27%.
With `Cc1ccc(S(=O)(=O)Nc2ccc3c(c2)C(=O)N([C@@H](C)CO)C[C@@H](C)[C@H](CN(C)S(=O)(=O)c2ccc(C)cc2)OCCCC[C@@H](C)O3)cc1` the CPE inhibition was inconclusive: 68.2%.
For `O=C(C[C@H]1C[C@H]2c3cc(NS(=O)(=O)c4ccc(F)cc4)ccc3O[C@H]2[C@H](CO)O1)NCc1ccc(-c2ccccc2)cc1`, the CPE inhibition was inactive: -5.68%.
With `CCOc1cc(N2CCOCC2)c(OCC)cc1NC(=O)C(C)(C)C` the CPE inhibition was inconclusive: 22%.
In the case of `O=C(C[C@H]1C[C@H](C(=O)N2CCCCC2)[C@@]2(CCc3ccccc3)c3[nH]c4cc(-c5ccco5)ccc4c3CCN2C1=O)NCCN1CCOCC1`, the CPE inhibition is reported as inactive: -11.6%.
With `O=C(NCc1ccc2c(c1)OCO2)[C@@H]1[C@@H](CO)[C@@H]2Cn3c(cccc3=O)[C@H]1N2Cc1cncnc1` the CPE inhibition was inconclusive: 21.8%.
With `NC(=O)C1CCN(C(=O)COc2ccc3c4c(c(=O)oc3c2)CCC4)CC1` the CPE inhibition was active: 68.3%.
In the case of `C/C=C/c1ccc([C@H]2[C@H](CO)N(C(C)=O)C23CN(S(C)(=O)=O)C3)cc1`, the CPE inhibition is reported as inactive: 16.7%.
In the case of `C[C@@H]1CN([C@H](C)CO)S(=O)(=O)c2ccc(C#Cc3ccncc3)cc2O[C@H]1CN(C)C`, the CPE inhibition is reported as inconclusive: 26.9%.
With `C[C@@H]1CN([C@H](C)CO)S(=O)(=O)c2ccc(Br)cc2O[C@@H]1CN(C)C(=O)NC1CCCC1` the CPE inhibition was inconclusive: 20.2%.
For `CN(Cc1nccs1)C(=O)c1ccc(OC2CCN(Cc3ccccn3)CC2)cc1`, the CPE inhibition was active: 41.8%.
For `C1CCc2c(nnc3c2-c2nonc2CC3)C1`, the CPE inhibition was inconclusive: 28.8%.
In the case of `CCOC(=O)c1c(NCc2ccccc2)n[nH]c1C`, the CPE inhibition is reported as inconclusive: 76.7%.
With `C[C@@H]1CN([C@H](C)CO)C(=O)c2cc(/C=C/c3ccccc3)cnc2O[C@@H]1CN(C)C(=O)Nc1ccccc1F` the CPE inhibition was inconclusive: -2.42%.
With `COc1ccc(CN(C)C[C@@H]2Oc3ccc(NC(=O)CCN4CCOCC4)cc3C(=O)N([C@H](C)CO)C[C@@H]2C)cc1` the CPE inhibition was inactive: 0.696%.
For `Cc1ccc(NC(=O)C2=C(c3ccccc3)S(=O)(=O)CCS2(=O)=O)cc1`, the CPE inhibition was inactive: 6.22%.
In the case of `C[C@@H]1CN([C@H](C)CO)C(=O)c2cc(C#Cc3ccccc3F)cnc2O[C@H]1CN(C)C(=O)C1CCOCC1`, the CPE inhibition is reported as active: 34.7%.
In the case of `C=CCNC(=O)[C@H]1[C@@H]2C(=O)O[C@@H](c3ccccc3)[C@@H](c3ccccc3)N2[C@@H](c2ccc(OCCO)cc2)[C@]12C(=O)N(C(=O)OCCOC)c1ccc(C#Cc3ccc(OC)cc3)cc12`, the CPE inhibition is reported as active: 22.6%.
In the case of `COc1ccc(N2Cc3cccc(C(=O)N4CCN(C(=O)c5ccco5)CC4)c3C2=O)cc1`, the CPE inhibition is reported as inconclusive: 39.2%.
With `CC(C)(C)OC[C@H](NC(=O)c1[nH]cnc1C(=O)Nc1ccccc1F)C(=O)OC(C)(C)C` the CPE inhibition was inconclusive: 50.3%.
For `C[C@H](CO)N1C[C@H](C)[C@H](CN(C)C(=O)Nc2ccc(C(F)(F)F)cc2)Oc2ccc(NC(=O)Nc3ccc(C(F)(F)F)cc3)cc2C1=O`, the CPE inhibition was inconclusive: 34.6%.
With `Cc1ccc(-c2cnc3c(c2)C(=O)N([C@H](C)CO)C[C@@H](C)[C@@H](CN(C)C(=O)c2ccncc2)O3)cc1` the CPE inhibition was inconclusive: 5.44%.
For `CC(C)NCC(O)c1cc(O)cc(O)c1` (stereo not drawn), the CPE inhibition was inconclusive: 20.4%.
In the case of `O=C(CCC(=O)N1CCOc2ccccc21)NC1CCN(Cc2ccccc2)CC1`, the CPE inhibition is reported as inconclusive: 37.2%.
For `O=C(Nc1cccc(F)c1)N1CCCCN2[C@@H](CO)[C@H](c3ccc(C#CC4CC4)cc3)[C@@H]2C1`, the CPE inhibition was inactive: 3.17%.
For `CC(C)NC(=O)N(C)C[C@H]1Oc2ccc(NS(=O)(=O)c3ccccc3)cc2CC(=O)N([C@H](C)CO)C[C@@H]1C`, the CPE inhibition was inconclusive: 21.6%.
With `CCOc1ccccc1CN1CCNC(=O)C1CC(=O)NCc1cc(C)n(C)n1` (stereo not drawn) the CPE inhibition was inconclusive: 28.1%.
In the case of `COCC(=O)N1CC2(C1)CN(Cc1ccccn1)[C@H](CO)c1[nH]c3cc(OC)ccc3c12`, the CPE inhibition is reported as inconclusive: 29.5%.
In the case of `CN1C(=O)c2cc(NC(=O)Cc3ccccc3)ccc2OC[C@@H]2O[C@H](CC(=O)NCC3CC3)CC[C@H]21`, the CPE inhibition is reported as inconclusive: 45.4%.
With `CCOC(=O)c1ccc(NC2c3ccccc3C(=O)N2c2cccnc2)cc1` (stereo not drawn) the CPE inhibition was inconclusive: 25.1%.
For `C[C@H]1CN([C@@H](C)CO)C(=O)c2cc(NS(C)(=O)=O)ccc2O[C@@H]1CN(C)C(=O)Nc1cccc2ccccc12`, the CPE inhibition was inactive: 0.593%.
With `C[C@@H]1CCCCO[C@@H](CN(C)Cc2ccc(C(=O)O)cc2)[C@H](C)CN([C@H](C)CO)C(=O)c2cc(NC(=O)NC3CCCCC3)ccc2O1` the CPE inhibition was inconclusive: 59%.
In the case of `O=S(=O)(Cc1ccccc1)N1CCCCN2[C@@H](CO)[C@H](c3ccc(-c4ccccc4)cc3)[C@@H]2C1`, the CPE inhibition is reported as active: 59%.
With `Cc1ccccc1C(=O)NCCN=C1NS(=O)(=O)c2ccccc21` the CPE inhibition was inconclusive: 66.3%.
In the case of `CN(c1ccc(C(=O)NCc2ccccn2)cc1)S(=O)(=O)c1ccc(Cl)cc1`, the CPE inhibition is reported as inconclusive: 33.2%.
With `O=C(NCC(=O)N1CCCC1)c1ccc(Br)o1` the CPE inhibition was inactive: 1.39%.
